# The supplement of paper PMC8728848
# The other results are listed elsewhere or left out.
# B1: Clec39 (Caenorhabditis elegans) (protein)
# chain: MTSFYDNSSSSSKPVPLKTSRAQKIQILIFDNWKLILYGAISTLILVLAIMFSTLFFALPAANCDENSEPTKYYTTNAEITTTITTTNQKTTSTASSHLTTISSSATQIYSESSSSSTSQSTFTQSPPEISTTTIAPSDFSCQHGFTLVNNKCWKLVTSNQARPDADKICNGYGGATLFSIKSEQDNRAMIHFVKGQDIDFLWSGLLCSAGEPISCIWDIENGSTANYSNFADGFPNIVYGNCVYFITSGDEAGQWGNEQCGQVMNFVCELPATFQGKDGCKNNYEKSCYLRFDLNLTVPQAQNFCLEKCANLVSIHSANEVRFIMTIYDFIGEILIGALAPAQDFIYWLDGTPANYNNLKFFYNSTCVHMTVAPGMQNVGKWFTRFCTETGKFLCKRSIKNSCT
# How the values were obtained:
# Assay in all cases: glycan array binding signal (z-score within array); higher = stronger binding
# Conditions in all cases: glycan notation: IUPAC condensed, linker removed
# [1] = target: Gal(b1-3)GlcNAc(b1-2)Man(a1-3)[Gal(b1-3)GlcNAc(b1-2)Man(a1-6)]Man(b1-4)GlcNAc(b1-4)[Fuc(a1-6)]GlcNAc
# Summary of the method: (§1)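 The binding signal is a Z-score computed within each array. Data were drawn from 3228 arrays in the Consortium for Functional Glycomics database, restricted to those with a known protein sequence. Scores were averaged over arrays of the same protein sequence at different concentrations or buffers, and over linkers, and negative values can be taken as non-binding.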
# [2] = target: Gal(b1-3)GlcNAc(b1-2)Man(a1-3)[GlcNAc(b1-4)][Gal(b1-3)GlcNAc(b1-2)Man(a1-6)]Man(b1-4)GlcNAc(b1-4)GlcNAc
# Summary of the method: as §1
# [3] = target: Gal(b1-3)GlcNAc(b1-2)[Gal(b1-3)GlcNAc(b1-6)]Man(a1-6)[Gal(b1-3)GlcNAc(b1-2)Man(a1-3)]Man(b1-4)GlcNAc(b1-4)GlcNAc
# Summary of the method: as §1
# [4] = target: Gal(b1-3)GlcNAc(b1-3)Gal(b1-3)GlcNAc
# Summary of the method: as §1
# [5] = target: Gal(b1-3)GlcNAc(b1-3)Gal(b1-4)Glc
# Summary of the method: as §1
# [6] = target: Gal(b1-3)GlcNAc(b1-3)Gal(b1-4)GlcNAc
# Summary of the method: as §1
# [7] = target: Gal(b1-3)GlcNAc(b1-3)Gal(b1-4)GlcNAc(b1-2)Man(a1-3)[Gal(b1-3)GlcNAc(b1-3)Gal(b1-4)GlcNAc(b1-2)Man(a1-6)]Man(b1-4)GlcNAc(b1-4)GlcNAc
# Summary of the method: as §1
# [8] = target: Gal(b1-3)GlcNAc(b1-3)Gal(b1-4)GlcNAc(b1-2)[Gal(b1-3)GlcNAc(b1-3)Gal(b1-4)GlcNAc(b1-6)]Man(a1-6)[Gal(b1-3)GlcNAc(b1-3)Gal(b1-4)GlcNAc(b1-2)Man(a1-3)]Man(b1-4)GlcNAc(b1-4)[Fuc(a1-6)]GlcNAc
# Summary of the method: as §1
# [9] = target: Gal(b1-3)GlcNAc(b1-3)Gal(b1-4)GlcNAc(b1-3)Gal(b1-4)GlcNAc(b1-2)[Gal(b1-3)GlcNAc(b1-3)Gal(b1-4)GlcNAc(b1-3)Gal(b1-4)GlcNAc(b1-6)]Man(a1-6)[Gal(b1-3)GlcNAc(b1-3)Gal(b1-4)GlcNAc(b1-3)Gal(b1-4)GlcNAc(b1-2)Man(a1-3)]Man(b1-4)GlcNAc(b1-4)[Fuc(a1-6)]GlcNAc
# Summary of the method: as §1
# [10] = target: Gal(b1-3)GlcNAc(b1-3)Gal(b1-4)GlcNAc(b1-6)[Gal(b1-3)GlcNAc(b1-3)]Gal(b1-4)Glc
# Summary of the method: as §1
# [11] = target: Gal(b1-3)GlcNAc(b1-3)Gal(b1-4)[Fuc(a1-3)]GlcNAc
# Summary of the method: as §1
# [12] = target: Gal(b1-3)GlcNAc(b1-3)Gal(b1-4)[Fuc(a1-3)]GlcNAc(b1-6)[Gal(b1-3)GlcNAc(b1-3)]Gal(b1-4)Glc
# Summary of the method: as §1
# [13] = target: Gal(b1-3)GlcNAc(b1-3)GalNAc
# Summary of the method: as §1
# [14] = target: Gal(b1-3)GlcNAc(b1-6)Gal(b1-4)GlcNAc
# Summary of the method: as §1
# [15] = target: Gal(b1-3)GlcNAc(b1-6)GalNAc
# Summary of the method: as §1
# [16] = target: Gal(b1-3)GlcNAc(b1-6)[Gal(b1-3)]GalNAc
# Summary of the method: as §1
# [17] = target: Gal(b1-3)GlcNAc6S
# Summary of the method: as §1
# [18] = target: Gal(b1-3)[Fuc(a1-4)]GlcNAc
# Summary of the method: as §1
# [19] = target: Gal(b1-3)[Fuc(a1-4)]GlcNAc(b1-2)Man
# Summary of the method: as §1
# [20] = target: Gal(b1-3)[Fuc(a1-4)]GlcNAc(b1-2)Man(a1-3)[Gal(b1-3)[Fuc(a1-4)]GlcNAc(b1-2)Man(a1-6)]Man(b1-4)GlcNAc(b1-4)[Fuc(a1-6)]GlcNAc
# Summary of the method: as §1
# [21] = target: Gal(b1-3)[Fuc(a1-4)]GlcNAc(b1-3)Gal(b1-3)[Fuc(a1-4)]GlcNAc
# Summary of the method: as §1
# [22] = target: Gal(b1-3)[Fuc(a1-4)]GlcNAc(b1-3)Gal(b1-4)[Fuc(a1-3)]GlcNAc
# Summary of the method: as §1
# [23] = target: Gal(b1-3)[Fuc(a1-4)]GlcNAc(b1-6)GalNAc
# Summary of the method: as §1
# [24] = target: Gal(b1-3)[GlcNAc(b1-6)]GalNAc
# Summary of the method: as §1
# [25] = target: Gal(b1-3)[Neu5Ac(a2-6)]GalNAc
# Summary of the method: as §1
# [26] = target: Gal(b1-3)[Neu5Ac(a2-6)]GlcNAc(b1-4)Gal(b1-4)Glc
# Summary of the method: as §1
# [27] = target: Gal(b1-3)[Neu5Ac(b2-6)]GalNAc
# Summary of the method: as §1
# [28] = target: Gal(b1-4)Gal
# Summary of the method: as §1
# [29] = target: Gal(b1-4)GalNAc(a1-3)[Fuc(a1-2)]Gal(b1-4)GlcNAc
# Summary of the method: as §1
# [30] = target: Gal(b1-4)GalNAc(b1-3)[Fuc(a1-2)]Gal(b1-4)GlcNAc
# Summary of the method: as §1
# [31] = target: Gal(b1-4)Glc
# Summary of the method: as §1
# [32] = target: Gal(b1-4)Glc6S
# Summary of the method: as §1
# [33] = target: Gal(b1-4)GlcNAc
# Summary of the method: as §1
# [34] = target: Gal(b1-4)GlcNAc(a1-6)Gal(b1-4)GlcNAc
# Summary of the method: as §1
# [35] = target: Gal(b1-4)GlcNAc(b1-2)Man
# Summary of the method: as §1
# [36] = target: Gal(b1-4)GlcNAc(b1-2)Man(a1-3)Man(b1-4)GlcNAc(b1-4)GlcNAc
# Summary of the method: as §1
# [37] = target: Gal(b1-4)GlcNAc(b1-2)Man(a1-3)[Gal(b1-4)GlcNAc(b1-2)Man(a1-6)]Man(b1-4)GlcNAc(b1-4)GlcNAc
# Summary of the method: as §1
binder,measurement,setting,value
B1,glycan array binding signal (z-score),[1],-0.079
same,glycan array binding signal (z-score),[2],0.28
same,glycan array binding signal (z-score),[3],0.065
same,glycan array binding signal (z-score),[4],-1.07
same,glycan array binding signal (z-score),[5],-0.912
same,glycan array binding signal (z-score),[6],-1.34
same,glycan array binding signal (z-score),[7],0.262
same,glycan array binding signal (z-score),[8],0.48
same,glycan array binding signal (z-score),[9],0.744
same,glycan array binding signal (z-score),[10],0.201
same,glycan array binding signal (z-score),[11],-0.715
same,glycan array binding signal (z-score),[12],0.976
same,glycan array binding signal (z-score),[13],-0.666
same,glycan array binding signal (z-score),[14],-0.45
same,glycan array binding signal (z-score),[15],0.196
same,glycan array binding signal (z-score),[16],-0.019
same,glycan array binding signal (z-score),[17],-0.536
same,glycan array binding signal (z-score),[18],-0.069
same,glycan array binding signal (z-score),[19],0.559
same,glycan array binding signal (z-score),[20],-0.546
same,glycan array binding signal (z-score),[21],-1.29
same,glycan array binding signal (z-score),[22],0.602
same,glycan array binding signal (z-score),[23],0.035
same,glycan array binding signal (z-score),[24],-0.522
same,glycan array binding signal (z-score),[25],-0.557
same,glycan array binding signal (z-score),[26],-0.851
same,glycan array binding signal (z-score),[27],-0.659
same,glycan array binding signal (z-score),[28],-0.453
same,glycan array binding signal (z-score),[29],0.089
same,glycan array binding signal (z-score),[30],1.23
same,glycan array binding signal (z-score),[31],-0.058
same,glycan array binding signal (z-score),[32],0.767
same,glycan array binding signal (z-score),[33],-0.525
same,glycan array binding signal (z-score),[34],-0.461
same,glycan array binding signal (z-score),[35],-0.206
same,glycan array binding signal (z-score),[36],-0.931
same,glycan array binding signal (z-score),[37],-1.01
